Laboratory results reported in patent US20220187282A1, “CARDIOMYOCYTE PROLIFERATION” (The Council of the Queensland Institute of Medical Research, priority 2019, published 2022).
At least one structure is not confirmed: it was looked up by name or label, or the drawing left a doubt. Some of these results come from one statement about several compounds together.

Sequences of proteins named here, by UniProt entry; tags and fusion partners are left off.
UniProt P49137, whole entry: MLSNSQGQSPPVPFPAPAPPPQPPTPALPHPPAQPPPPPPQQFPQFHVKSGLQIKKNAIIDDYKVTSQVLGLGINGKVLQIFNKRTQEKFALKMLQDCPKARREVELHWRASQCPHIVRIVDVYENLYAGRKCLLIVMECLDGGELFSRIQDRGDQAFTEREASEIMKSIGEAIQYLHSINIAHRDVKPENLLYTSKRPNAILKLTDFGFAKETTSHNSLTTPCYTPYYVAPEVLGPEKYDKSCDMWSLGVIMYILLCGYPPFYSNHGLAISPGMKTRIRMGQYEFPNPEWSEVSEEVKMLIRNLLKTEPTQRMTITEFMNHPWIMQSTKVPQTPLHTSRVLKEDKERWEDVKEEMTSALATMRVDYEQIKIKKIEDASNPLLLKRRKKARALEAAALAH
UniProt Q16644, whole entry: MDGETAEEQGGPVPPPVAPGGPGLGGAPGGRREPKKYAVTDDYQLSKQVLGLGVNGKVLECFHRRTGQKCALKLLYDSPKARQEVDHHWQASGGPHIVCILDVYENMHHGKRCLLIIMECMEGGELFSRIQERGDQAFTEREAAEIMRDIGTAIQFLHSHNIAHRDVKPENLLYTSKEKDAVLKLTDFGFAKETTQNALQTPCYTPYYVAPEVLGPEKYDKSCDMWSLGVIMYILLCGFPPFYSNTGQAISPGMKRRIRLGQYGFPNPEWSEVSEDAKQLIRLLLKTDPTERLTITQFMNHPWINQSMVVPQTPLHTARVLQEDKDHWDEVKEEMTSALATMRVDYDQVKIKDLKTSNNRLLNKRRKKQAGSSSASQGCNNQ

What was measured:
mature hCOs = experiment: mature hCO, cardiomyocyte proliferation (Ki-67 intensity, Ki-67+ α-actinin cardiomyocytes); format: cell-based, human; conditions: 2 days of compound treatment followed by 5 days with no compound
Method: hCOs were cultured in CTRL medium for formation for 5 days and then either kept in CTRL medium culture or changed to maturation medium (Mills et al., 2017a) comprising DMEM without glucose, glutamine and phenol red (ThermoFisher Scientific) supplemented with 4% […](without insulin) (ThermoFisher Scientific), 1% GlutaMAX (ThermoFisher Scientific), 200 μM L-ascorbic acid 2-phosphate sesquimagnesium salt hydrate and 1% Penicillin/Streptomycin (ThermoFisher Scientific), 1 mmol/L glucose and 100 μmon palmitic acid (conjugated to bovine serum albumin within B27 by incubating for 2h at 37° C., Sigma) with changes every 2-3 days. […]
For more detailed images an Olympus IX81 confocal microscope was used for mounted hCO imaging. For cell cycle analysis experiments 3 random fields of view were imaged and manually quantified for proliferation. […]
Hits were next validated in mature hCOs using a targeted concentration range based on their active concentrations in the initial immature hCO screen (FIG. 3A). Proliferation markers were quantified using high magnification confocal imaging as we found flow cytometry to be inaccurate in hCO (data not shown). […]

kinases [1] = biological target: kinases (Homo sapiens, UniProt P49137); format: biochemical; conditions: MAPKAPK2 FRET-Z-Lyte SP
kinases [2] = biological target: kinases (Homo sapiens, UniProt Q16644); format: biochemical; conditions: MAPKAPK3 FRET-Z-Lyte SP
kinases [3] = biological target: T1, kinases (Homo sapiens, UniProt Q8IW41); format: biochemical; conditions: MAPKAPK5 (PRAK) FRET-Z-Lyte SP
T1 sequence (Q8IW41 1-473): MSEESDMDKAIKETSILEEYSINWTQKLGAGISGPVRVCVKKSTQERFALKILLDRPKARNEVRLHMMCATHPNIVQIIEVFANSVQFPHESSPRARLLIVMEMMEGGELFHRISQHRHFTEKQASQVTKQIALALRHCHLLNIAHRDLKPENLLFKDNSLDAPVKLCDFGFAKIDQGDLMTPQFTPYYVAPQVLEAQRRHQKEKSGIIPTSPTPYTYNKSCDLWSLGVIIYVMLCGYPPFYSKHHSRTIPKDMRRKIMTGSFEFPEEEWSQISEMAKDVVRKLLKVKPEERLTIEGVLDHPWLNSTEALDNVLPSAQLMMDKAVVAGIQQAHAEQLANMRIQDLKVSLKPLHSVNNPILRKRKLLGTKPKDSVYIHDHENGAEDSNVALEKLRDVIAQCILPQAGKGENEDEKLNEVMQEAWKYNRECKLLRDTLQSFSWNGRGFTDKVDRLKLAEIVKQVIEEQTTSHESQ

kinases [4] = biological target: T2, kinases (Homo sapiens, UniProt Q9NR20); format: biochemical; conditions: DYRK4 FRET-Z-Lyte SP; Test Conc(μM):ATP Conc(μM) 1:5
T2 sequence (Q9NR20 1-520): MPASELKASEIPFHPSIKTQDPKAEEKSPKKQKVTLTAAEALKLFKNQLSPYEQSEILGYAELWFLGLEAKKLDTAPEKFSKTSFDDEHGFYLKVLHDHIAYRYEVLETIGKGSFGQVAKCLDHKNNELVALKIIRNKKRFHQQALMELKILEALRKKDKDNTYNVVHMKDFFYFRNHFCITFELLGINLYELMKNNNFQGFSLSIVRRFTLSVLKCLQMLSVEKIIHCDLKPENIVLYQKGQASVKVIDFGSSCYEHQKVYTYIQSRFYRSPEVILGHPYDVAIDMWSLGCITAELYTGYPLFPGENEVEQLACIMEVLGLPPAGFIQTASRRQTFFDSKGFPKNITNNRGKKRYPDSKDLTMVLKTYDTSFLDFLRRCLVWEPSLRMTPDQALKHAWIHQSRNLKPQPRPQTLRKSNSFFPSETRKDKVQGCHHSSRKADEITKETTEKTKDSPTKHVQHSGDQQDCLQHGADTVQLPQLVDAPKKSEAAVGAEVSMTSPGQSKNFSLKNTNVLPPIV

| Structure (SMILES) | time to cessation of proliferation after compound withdrawal (mature hCOs) [days] | Dist Act Flag (kinases [1]) | Dist Act Flag (kinases [2]) | Dist Act Flag (kinases [3]) | Dist Act Flag (kinases [4]) |
| --- | --- | --- | --- | --- | --- |
| Cc1ccc(NC(=O)c2ccnc(N3CCOCC3)c2)cc1Nc1ccnc(N2CC(C)OC(C)C2)n1 (centres unmarked) [compound 3] | ≤ 5 |  |  |  |  |
| Cc1cc(Oc2ccnc(Nc3ccc(S(N)(=O)=O)cc3)c2)c(-c2ccccn2)nc1C [compound 65] |  | N | N | N | N |
